Source: patent publication US8552059B2, “Treatment of ischemic episodes and cerebroprotection through misoprostol” (The Board of Trustees of the Leland Stanford Junior …, priority 2009, dated 2013)
At least one compound was matched to its structure with a doubt left.

Columns and labels:
hippocampal CA1 neurons [1] = assay: Organotypic hippocampal slices, oxygen glucose deprivation (OGD), PI fluorescence in CA1; format: cell-based, mouse; settings: OGD for 1 hour, imaged 24 h later
hippocampal CA1 neurons [2] = assay: Organotypic hippocampal slices, NMDA toxicity, PI fluorescence in CA1; format: cell-based, mouse; settings: 10 μM NMDA for 1 hour, imaged 24 h later

## CCCCC(C)(O)C/C=C/[C@H]1[C@H](O)CC(=O)[C@@H]1CCCCCCC(=O)OC (mixture of isomers) [misoprostol]
Hippocampal CA1 neurons [1]
  Neuronal death in CA1 (mean PI fluorescence), OGD: No differences were identified
Hippocampal CA1 neurons [2]
  Neuronal death in CA1 (mean PI fluorescence), NMDA: No differences were identified
